{
  "source": "paper PMC10517005",
  "about": "“A conserved membrane protein negatively regulates Mce1 complexes in mycobacteria” (Nature Communications, 2023)",
  "binders": {"B1": {"name": "MSMEG_0959-FLAG (protein)", "chain": "MTEPAGHEPPEAAGMSGVPDASGAAPAGEVLFYEQGASWAWLLSGPIAGVGMAILQRTGGYGYDLWIPLIFLVLVSGFIAIQIKAARIHTSVELTRETLRQGTEIISIDEIVDIYPEASGSEVPKWQSARALGELTGVPRGRTGIGLKLTGKRVAQAWARRHRTLRAALQQLVEERTP"}},
  "target": "T1, His6-YrbE1B (M. smegmatis)",
  "T1 sequence": "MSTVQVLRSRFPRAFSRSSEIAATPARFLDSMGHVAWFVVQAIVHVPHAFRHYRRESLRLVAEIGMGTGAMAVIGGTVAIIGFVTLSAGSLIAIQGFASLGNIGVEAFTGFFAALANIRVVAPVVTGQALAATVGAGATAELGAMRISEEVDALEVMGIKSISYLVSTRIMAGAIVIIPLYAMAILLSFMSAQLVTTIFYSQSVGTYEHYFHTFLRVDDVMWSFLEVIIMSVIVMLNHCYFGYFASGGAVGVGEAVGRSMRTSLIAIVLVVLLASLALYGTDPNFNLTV",
  "experiment": "pull-down; His-tag affinity purification (TALON resin) from DDM-extracted membranes of E. coli co-expressing the His-tagged bait and MSMEG_0959-FLAG; SDS-PAGE, α-His and α-FLAG immunoblots; TBS pH 8.0, wash with 300 mM NaCl, 0.05% DDM",
  "note": "Results are given in words; binding and its absence hold for the method and conditions named. In cells and extracts the contact can be indirect. Some results given as binding are weak or reduced against the parent protein; the word gives no strength. Sequences can lack the tags named with a protein.",
  "data": [
    {"binder": "B1", "values": [
      {"measurement": "binding", "result": "binds"}
    ]}
  ]
}
